In the supplement of paper PMC10849652:
The other results are listed elsewhere or left out.

The chains behind the UniProt entries cited, without tags or fusion partners. Where a name states a change or a piece, a line headed by the entry shows the natural chain unless it says otherwise.
UniProt Q9Y4L1: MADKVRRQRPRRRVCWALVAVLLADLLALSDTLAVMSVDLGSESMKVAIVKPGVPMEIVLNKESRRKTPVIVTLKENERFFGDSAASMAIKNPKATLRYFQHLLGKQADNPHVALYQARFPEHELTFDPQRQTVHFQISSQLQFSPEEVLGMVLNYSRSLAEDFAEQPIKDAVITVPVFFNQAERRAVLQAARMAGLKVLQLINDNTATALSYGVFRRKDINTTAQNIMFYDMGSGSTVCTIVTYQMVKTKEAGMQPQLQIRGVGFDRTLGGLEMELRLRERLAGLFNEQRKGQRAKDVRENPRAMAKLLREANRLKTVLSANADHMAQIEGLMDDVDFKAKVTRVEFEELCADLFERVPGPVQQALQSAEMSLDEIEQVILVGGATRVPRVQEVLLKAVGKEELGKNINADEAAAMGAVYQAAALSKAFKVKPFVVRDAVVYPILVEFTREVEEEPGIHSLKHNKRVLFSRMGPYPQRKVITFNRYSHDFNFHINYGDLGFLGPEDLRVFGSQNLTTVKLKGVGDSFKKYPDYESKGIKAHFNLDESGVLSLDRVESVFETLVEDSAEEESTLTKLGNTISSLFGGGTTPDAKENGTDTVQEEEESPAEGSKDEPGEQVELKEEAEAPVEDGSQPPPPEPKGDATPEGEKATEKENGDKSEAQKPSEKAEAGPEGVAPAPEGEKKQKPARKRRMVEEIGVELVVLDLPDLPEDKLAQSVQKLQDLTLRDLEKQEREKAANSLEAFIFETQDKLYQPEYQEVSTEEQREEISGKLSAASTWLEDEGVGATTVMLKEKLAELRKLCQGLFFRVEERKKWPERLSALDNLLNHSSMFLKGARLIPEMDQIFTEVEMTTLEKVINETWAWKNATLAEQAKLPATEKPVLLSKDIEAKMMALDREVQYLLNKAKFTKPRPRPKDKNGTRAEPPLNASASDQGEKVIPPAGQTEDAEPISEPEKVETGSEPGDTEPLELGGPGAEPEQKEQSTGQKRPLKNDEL
UniProt P13598: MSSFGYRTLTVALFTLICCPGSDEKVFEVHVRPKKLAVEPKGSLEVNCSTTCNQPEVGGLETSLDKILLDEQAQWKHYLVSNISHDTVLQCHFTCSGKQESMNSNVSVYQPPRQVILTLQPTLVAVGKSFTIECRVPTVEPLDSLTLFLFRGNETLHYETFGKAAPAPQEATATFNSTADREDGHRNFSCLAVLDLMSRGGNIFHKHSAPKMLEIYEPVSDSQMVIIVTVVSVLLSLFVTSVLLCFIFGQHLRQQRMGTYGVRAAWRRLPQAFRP
UniProt Q9BW71: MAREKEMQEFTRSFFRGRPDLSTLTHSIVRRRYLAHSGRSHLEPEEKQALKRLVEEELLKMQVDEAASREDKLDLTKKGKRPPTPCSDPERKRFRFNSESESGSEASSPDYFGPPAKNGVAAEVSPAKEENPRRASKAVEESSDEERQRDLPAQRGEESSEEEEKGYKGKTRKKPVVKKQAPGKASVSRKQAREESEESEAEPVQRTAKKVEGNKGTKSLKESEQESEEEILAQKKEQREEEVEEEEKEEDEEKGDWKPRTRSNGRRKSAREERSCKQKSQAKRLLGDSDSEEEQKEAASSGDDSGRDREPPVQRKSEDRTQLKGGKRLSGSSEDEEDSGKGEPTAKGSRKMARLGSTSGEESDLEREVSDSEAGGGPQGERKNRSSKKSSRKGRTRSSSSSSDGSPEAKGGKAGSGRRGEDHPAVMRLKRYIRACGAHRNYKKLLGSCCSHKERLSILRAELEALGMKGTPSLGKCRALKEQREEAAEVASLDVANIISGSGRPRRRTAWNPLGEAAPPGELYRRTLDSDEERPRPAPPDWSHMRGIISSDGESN
UniProt P48723: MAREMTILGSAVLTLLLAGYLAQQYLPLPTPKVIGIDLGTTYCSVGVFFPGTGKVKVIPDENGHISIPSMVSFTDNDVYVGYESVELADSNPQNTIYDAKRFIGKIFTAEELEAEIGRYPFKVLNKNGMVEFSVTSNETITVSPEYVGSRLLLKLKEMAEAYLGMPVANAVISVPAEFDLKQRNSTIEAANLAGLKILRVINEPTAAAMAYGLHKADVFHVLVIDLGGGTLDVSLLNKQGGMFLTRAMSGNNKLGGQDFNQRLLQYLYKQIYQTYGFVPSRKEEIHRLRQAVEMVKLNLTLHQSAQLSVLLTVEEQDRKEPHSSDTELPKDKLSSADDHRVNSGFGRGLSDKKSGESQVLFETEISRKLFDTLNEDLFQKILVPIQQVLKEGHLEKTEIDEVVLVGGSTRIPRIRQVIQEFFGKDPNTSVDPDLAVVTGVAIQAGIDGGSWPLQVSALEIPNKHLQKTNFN
UniProt O15347: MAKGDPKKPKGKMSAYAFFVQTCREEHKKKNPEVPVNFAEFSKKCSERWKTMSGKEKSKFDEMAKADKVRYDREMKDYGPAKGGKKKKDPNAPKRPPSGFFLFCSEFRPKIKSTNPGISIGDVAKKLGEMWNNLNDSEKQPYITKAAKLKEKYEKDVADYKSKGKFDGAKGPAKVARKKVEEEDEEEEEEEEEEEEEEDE
UniProt O95757: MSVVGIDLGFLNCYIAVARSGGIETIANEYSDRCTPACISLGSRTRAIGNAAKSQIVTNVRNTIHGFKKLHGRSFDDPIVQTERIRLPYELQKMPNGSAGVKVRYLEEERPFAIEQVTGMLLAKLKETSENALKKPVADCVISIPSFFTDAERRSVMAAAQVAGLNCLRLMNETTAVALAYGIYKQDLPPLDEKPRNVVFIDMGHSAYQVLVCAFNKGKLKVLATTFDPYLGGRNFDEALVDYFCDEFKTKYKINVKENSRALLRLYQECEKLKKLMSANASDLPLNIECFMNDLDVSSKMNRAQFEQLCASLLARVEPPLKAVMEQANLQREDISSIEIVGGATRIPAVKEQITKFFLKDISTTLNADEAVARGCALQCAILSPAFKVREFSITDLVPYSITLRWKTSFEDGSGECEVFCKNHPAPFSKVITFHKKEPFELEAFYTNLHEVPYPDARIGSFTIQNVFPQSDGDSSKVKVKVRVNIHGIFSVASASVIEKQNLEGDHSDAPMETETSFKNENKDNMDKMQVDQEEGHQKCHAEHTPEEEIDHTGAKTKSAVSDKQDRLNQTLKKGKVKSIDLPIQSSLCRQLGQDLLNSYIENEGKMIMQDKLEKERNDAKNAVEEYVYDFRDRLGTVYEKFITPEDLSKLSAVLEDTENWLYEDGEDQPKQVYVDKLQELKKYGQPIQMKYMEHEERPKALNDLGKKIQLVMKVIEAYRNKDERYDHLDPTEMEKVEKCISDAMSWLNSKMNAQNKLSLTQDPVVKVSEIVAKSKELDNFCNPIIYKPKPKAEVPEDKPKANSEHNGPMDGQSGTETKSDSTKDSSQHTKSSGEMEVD
UniProt Q9Y547: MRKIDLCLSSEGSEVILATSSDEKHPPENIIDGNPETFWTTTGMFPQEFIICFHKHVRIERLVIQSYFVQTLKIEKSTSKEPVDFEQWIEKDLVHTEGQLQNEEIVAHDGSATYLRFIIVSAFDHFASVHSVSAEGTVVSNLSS
UniProt Q6NVY1: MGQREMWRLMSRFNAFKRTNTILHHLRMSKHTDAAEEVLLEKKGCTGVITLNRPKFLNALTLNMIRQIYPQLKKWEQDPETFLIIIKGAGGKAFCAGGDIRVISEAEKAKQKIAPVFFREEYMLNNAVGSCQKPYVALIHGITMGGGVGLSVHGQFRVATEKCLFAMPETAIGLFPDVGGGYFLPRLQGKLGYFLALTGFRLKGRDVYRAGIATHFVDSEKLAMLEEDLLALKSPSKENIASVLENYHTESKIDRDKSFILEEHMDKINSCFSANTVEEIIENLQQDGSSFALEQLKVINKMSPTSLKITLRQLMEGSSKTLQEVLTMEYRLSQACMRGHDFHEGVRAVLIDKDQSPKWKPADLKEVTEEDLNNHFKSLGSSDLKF
UniProt P50747: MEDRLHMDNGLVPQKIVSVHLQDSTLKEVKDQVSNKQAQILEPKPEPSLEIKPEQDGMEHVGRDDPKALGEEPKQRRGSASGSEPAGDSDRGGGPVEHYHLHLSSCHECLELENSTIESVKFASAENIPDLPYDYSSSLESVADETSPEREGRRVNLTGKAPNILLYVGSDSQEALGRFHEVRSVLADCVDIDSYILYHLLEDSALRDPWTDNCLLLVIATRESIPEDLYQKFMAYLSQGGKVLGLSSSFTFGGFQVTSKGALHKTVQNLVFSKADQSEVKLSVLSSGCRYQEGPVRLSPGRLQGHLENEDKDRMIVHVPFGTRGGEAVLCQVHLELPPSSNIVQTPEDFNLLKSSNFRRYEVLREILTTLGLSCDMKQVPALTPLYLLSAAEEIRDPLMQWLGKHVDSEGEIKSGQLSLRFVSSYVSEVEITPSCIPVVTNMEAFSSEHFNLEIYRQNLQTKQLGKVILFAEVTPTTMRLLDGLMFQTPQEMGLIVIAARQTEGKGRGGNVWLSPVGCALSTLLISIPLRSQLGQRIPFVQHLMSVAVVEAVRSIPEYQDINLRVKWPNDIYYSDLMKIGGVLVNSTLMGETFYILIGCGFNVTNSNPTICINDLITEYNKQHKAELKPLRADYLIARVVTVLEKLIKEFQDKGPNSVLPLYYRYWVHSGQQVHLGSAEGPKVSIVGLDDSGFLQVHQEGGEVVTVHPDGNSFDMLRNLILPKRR
UniProt Q14103: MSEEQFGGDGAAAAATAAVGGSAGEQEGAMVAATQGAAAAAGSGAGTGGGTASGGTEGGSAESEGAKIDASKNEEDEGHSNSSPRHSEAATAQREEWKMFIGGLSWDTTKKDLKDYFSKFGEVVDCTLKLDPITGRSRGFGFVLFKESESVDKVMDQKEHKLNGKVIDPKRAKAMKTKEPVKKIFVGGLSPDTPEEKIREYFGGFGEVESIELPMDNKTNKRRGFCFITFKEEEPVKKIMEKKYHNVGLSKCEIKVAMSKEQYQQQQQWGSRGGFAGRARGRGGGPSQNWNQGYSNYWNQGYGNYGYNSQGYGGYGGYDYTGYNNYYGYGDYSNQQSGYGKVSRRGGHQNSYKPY
UniProt P52597: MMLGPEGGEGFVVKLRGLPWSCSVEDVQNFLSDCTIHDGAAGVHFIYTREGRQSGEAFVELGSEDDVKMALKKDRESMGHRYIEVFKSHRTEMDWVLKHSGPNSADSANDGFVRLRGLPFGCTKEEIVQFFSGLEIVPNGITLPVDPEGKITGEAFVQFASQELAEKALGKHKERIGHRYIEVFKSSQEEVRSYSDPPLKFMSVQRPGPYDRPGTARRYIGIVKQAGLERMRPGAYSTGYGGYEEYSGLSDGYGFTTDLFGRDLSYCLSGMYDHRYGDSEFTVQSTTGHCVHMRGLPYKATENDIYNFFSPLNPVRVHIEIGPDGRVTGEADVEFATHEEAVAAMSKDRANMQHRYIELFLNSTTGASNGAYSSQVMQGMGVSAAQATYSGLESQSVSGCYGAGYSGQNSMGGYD
UniProt Q15651: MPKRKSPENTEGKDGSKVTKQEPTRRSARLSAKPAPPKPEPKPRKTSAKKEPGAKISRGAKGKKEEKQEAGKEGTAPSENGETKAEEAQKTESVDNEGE
UniProt Q9NSE4: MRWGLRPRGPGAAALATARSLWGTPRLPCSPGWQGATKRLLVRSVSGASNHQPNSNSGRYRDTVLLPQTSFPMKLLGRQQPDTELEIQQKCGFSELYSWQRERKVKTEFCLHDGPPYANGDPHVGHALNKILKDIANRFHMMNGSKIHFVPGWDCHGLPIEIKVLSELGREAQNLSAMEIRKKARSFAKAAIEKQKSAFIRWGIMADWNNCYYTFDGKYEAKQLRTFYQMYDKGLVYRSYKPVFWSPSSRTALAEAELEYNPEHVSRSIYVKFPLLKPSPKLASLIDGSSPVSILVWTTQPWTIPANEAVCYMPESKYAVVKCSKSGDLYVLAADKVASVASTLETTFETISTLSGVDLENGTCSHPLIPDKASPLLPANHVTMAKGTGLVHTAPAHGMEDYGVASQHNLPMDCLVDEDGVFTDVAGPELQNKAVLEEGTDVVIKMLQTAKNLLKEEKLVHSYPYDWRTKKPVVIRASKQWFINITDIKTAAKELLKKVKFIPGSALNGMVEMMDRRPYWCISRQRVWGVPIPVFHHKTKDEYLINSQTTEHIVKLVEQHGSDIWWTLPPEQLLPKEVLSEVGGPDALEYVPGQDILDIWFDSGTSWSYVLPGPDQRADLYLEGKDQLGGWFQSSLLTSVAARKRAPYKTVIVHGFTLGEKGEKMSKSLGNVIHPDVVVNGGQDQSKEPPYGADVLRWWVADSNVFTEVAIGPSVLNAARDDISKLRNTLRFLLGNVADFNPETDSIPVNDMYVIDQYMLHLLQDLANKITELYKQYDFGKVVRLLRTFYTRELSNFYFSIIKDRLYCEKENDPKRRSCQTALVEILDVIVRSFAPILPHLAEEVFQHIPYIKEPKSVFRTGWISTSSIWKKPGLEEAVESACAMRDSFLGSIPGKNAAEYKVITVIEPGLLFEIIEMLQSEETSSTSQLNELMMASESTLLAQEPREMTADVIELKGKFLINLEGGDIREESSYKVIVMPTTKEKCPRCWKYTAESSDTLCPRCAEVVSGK

What was measured:
Assay in all cases: log2 fold change, soluble protein after heating vs DMSO (PISA); higher = thermal stabilisation; K562 cells, 10 uM, 30 min; active = over 0.2 and 3.5 SD of the protein, either way, in both replicates (recomputed)
[1] = compound: NC(=O)Nc1cc(-c2cccc(F)c2)sc1C(=O)N[C@H]1CCCNC1
Summary of the method: (§1)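 K562 cells at 2×10^6 cells/mL were treated for 30 min with 10 μM compound, and aliquots were heated for 3 min over 48°C-58°C before pooling. Extraction used PBS with 0.5% NP-40 at 4°C, and soluble protein was the supernatant after 21,000xg for 90 min, measured by TMTpro 16plex LC-MS/MS with channel sums equalised. Thermal stability values, relative to control samples and from duplicates, are log2 fold changes.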

[2] = compound: NC(=O)c1cnc(N[C@@H]2CCCC[C@@H]2N)nc1Nc1cccc(-n2nccn2)c1
Summary of the method: as §1

[3] = compound: NC1(c2ccc(-c3nc4ccn5c(=O)[nH]nc5c4cc3-c3ccccc3)cc2)CCC1
Summary of the method: as §1

[4] = compound: NCC(=O)Nc1ccc(-n2nc(C(F)(F)F)cc2-c2ccc3c(ccc4ccccc43)c2)cc1
Summary of the method: as §1

entinostat = compound: Nc1ccccc1NC(=O)c1ccc(CNC(=O)OCc2cccnc2)cc1 [entinostat]
Summary of the method: as §1

vorinostat = compound: O=C(CCCCCCC(=O)Nc1ccccc1)NO [vorinostat]
Summary of the method: as §1

citarinostat = compound: O=C(CCCCCCNC(=O)c1cnc(N(c2ccccc2)c2ccccc2Cl)nc1)NO [citarinostat]
Summary of the method: as §1

silmitasertib = compound: O=C(O)c1ccc2c(c1)nc(Nc1cccc(Cl)c1)c1ccncc12 [silmitasertib]
Summary of the method: as §1

[5] = compound: O=C1NC(=O)C(c2cnc3ccccn23)=C1c1cn2c3c(cc(F)cc13)CN(C(=O)N1CCCCC1)CC2
Summary of the method: as §1

[6] = compound: c1cc(OCCN2CCCCC2)cc(-c2n[nH]c3ccc(-c4nnc[nH]4)cc23)c1
Summary of the method: as §1

Measured: log2 fold change

HINT3 (UniProt Q9NQE9)
inactive: [1] -0.044 | [2] 0.009 | [3] -0.088 | [4] -0.014 | entinostat -0.048 | vorinostat -0.03 | citarinostat 0.05 | silmitasertib 0.021 | [5] -0.055 | [6] -0.031

HOMER1 (UniProt Q86YM7)
inactive: [1] 0.058 | [2] 0.007 | [3] -0.014 | [4] 0.032 | entinostat 0.049 | vorinostat 0.059 | citarinostat 0.013 | silmitasertib 0.119 | [5] 0.013 | [6] 0.024

HIST2H2BC (UniProt Q6DN03)
inactive: [1] 0.117 | [2] 0.297 | [3] 0.561 | [4] -0.01 | entinostat 0.056 | vorinostat 0.206 | citarinostat -0.035 | silmitasertib -0.068 | [5] 0.074 | [6] -0.244

HIKESHI (UniProt Q53FT3)
inactive: [1] 0 | [2] -0.045 | [3] -0.046 | [4] -0.053 | entinostat -0.003 | vorinostat -0.05 | citarinostat 0.021 | silmitasertib 0.002 | [5] 0.026 | [6] -0.056

HOOK3 (UniProt Q86VS8)
inactive: [1] 0.05 | [2] -0.077 | [3] -0.079 | [4] -0.081 | entinostat 0.063 | vorinostat 0.056 | citarinostat -0.022 | silmitasertib 0.101 | [5] -0.049 | [6] -0.05

HSPB1 (UniProt P04792)
inactive: [1] -0.034 | [2] -0.037 | [3] 0.007 | [4] -0.004 | entinostat 0.028 | vorinostat -0.008 | citarinostat -0.031 | silmitasertib 0.056 | [5] 0.043 | [6] -0.081

HYOU1 (UniProt Q9Y4L1)
inactive: [1] 0.068 | [2] -0.011 | [3] -0.032 | [4] 0.049 | entinostat 0.028 | vorinostat 0.002 | citarinostat 0.007 | silmitasertib -0.006 | [5] 0 | [6] -0.073

HSPG2 (UniProt P98160)
inactive: [1] 0.01 | [2] -0.078 | [3] -0.039 | [4] 0.019 | entinostat -0.04 | vorinostat -0.011 | citarinostat 0.058 | silmitasertib -0.039 | [5] 0.057 | [6] -0.114

ICAM2 (UniProt P13598)
inactive: [1] -0.079 | [2] 0.056 | [3] 0.107 | [4] 0.087 | entinostat -0.049 | vorinostat -0.012 | citarinostat 0.054 | silmitasertib -0.054 | [5] -0.066 | [6] -0.032

Two successive entries already listed, quoted:
HSPB1 (UniProt P04792)
inactive: [1] -0.034 | [2] -0.037 | [3] 0.007 | [4] -0.004 | entinostat 0.028 | vorinostat -0.008 | citarinostat -0.031 | silmitasertib 0.056 | [5] 0.043 | [6] -0.081

HYOU1 (UniProt Q9Y4L1)
inactive: [1] 0.068 | [2] -0.011 | [3] -0.032 | [4] 0.049 | entinostat 0.028 | vorinostat 0.002 | citarinostat 0.007 | silmitasertib -0.006 | [5] 0 | [6] -0.073

The list continues.

HIRIP3 (UniProt Q9BW71)
inactive: [1] -0.013 | [2] -0.053 | [3] -0.046 | [4] -0.01 | entinostat 0.002 | vorinostat 0.004 | citarinostat 0.04 | silmitasertib -0.011 | [5] -0.029 | [6] -0.023

IARS (UniProt P41252)
inactive: [1] 0.155 | [2] -0.099 | [3] 0.136 | [4] 0.024 | entinostat 0.071 | vorinostat 0.035 | citarinostat -0.009 | silmitasertib 0.196 | [5] 0.38 | [6] -0.17

HSPH1 (UniProt Q92598)
inactive: [1] -0.039 | [2] -0.005 | [3] -0.034 | [4] -0.015 | entinostat 0.033 | vorinostat 0.024 | citarinostat 0.014 | silmitasertib 0.047 | [5] -0.038 | [6] -0.019

HSPA13 (UniProt P48723)
inactive: [1] -0.007 | [2] 0.092 | [3] -0.049 | [4] 0.05 | entinostat -0.022 | vorinostat 0.039 | citarinostat 0.078 | silmitasertib -0.001 | [5] -0.039 | [6] -0.072

HMGB3 (UniProt O15347)
inactive: [1] 0.025 | [2] 0.153 | [3] 0.143 | [4] 0.136 | entinostat -0.032 | vorinostat -0.044 | citarinostat -0.159 | silmitasertib -0.068 | [5] -0.043 | [6] 0.146

HSPA4L (UniProt O95757)
inactive: [1] -0.047 | [2] 0.016 | [3] -0.018 | [4] -0.041 | entinostat 0.008 | vorinostat 0.025 | citarinostat 0.018 | silmitasertib 0.021 | [5] -0.051 | [6] 0.019

HSPA14 (UniProt Q0VDF9)
inactive: [1] -0.053 | [2] -0.057 | [3] -0.05 | [4] -0.058 | entinostat 0.059 | vorinostat 0.094 | citarinostat 0.033 | silmitasertib 0.054 | [5] 0.129 | [6] -0.115

HSPB11 (UniProt Q9Y547)
inactive: [1] -0.014 | [2] -0.065 | [3] 0.075 | [4] -0.078 | entinostat 0.012 | vorinostat -0.01 | citarinostat 0.057 | silmitasertib -0.018 | [5] -0.024 | [6] -0.04

HRC (UniProt P23327)
inactive: [1] -0.161 | [2] 0.005 | [3] -0.02 | [4] -0.056 | entinostat -0.114 | vorinostat -0.128 | citarinostat -0.011 | silmitasertib 0.013 | [5] 0.023 | [6] -0.026

HIBCH (UniProt Q6NVY1)
inactive: [1] -0.01 | [2] -0.057 | [3] -0.08 | [4] -0.065 | entinostat 0.037 | vorinostat 0.015 | citarinostat 0.015 | silmitasertib -0.007 | [5] -0.007 | [6] -0.012

HLCS (UniProt P50747)
inactive: [1] -0.007 | [2] -0.058 | [3] -0.111 | [4] -0.061 | entinostat 0.02 | vorinostat -0.057 | citarinostat -0.001 | silmitasertib 0.048 | [5] -0.01 | [6] 0.027

HNRNPD isoform 4 (UniProt Q14103)
inactive: [1] -0.005 | [2] 0.011 | [3] 0.205 | [4] 0.172 | entinostat -0.041 | vorinostat -0.087 | citarinostat -0.215 | silmitasertib 0.112 | [5] 0.102 | [6] -0.049

HMBS (UniProt P08397)
inactive: [1] 0.017 | [2] 0.008 | [3] 0.016 | [4] 0.072 | entinostat -0.026 | vorinostat -0.028 | citarinostat 0.01 | silmitasertib -0.044 | [5] 0.017 | [6] 0.017

HNRNPF (UniProt P52597)
inactive: [1] -0.015 | [2] 0.014 | [3] -0.11 | [4] -0.027 | entinostat 0.137 | vorinostat 0.154 | citarinostat 0.07 | silmitasertib 0.074 | [5] -0.104 | [6] -0.048

HMGN3 (UniProt Q15651)
inactive: [1] -0.147 | [2] -0.125 | [3] 0.047 | [4] -0.065 | entinostat -0.027 | vorinostat 0.017 | citarinostat -0.063 | silmitasertib -0.04 | [5] -0.042 | [6] -0.113

IARS2 (UniProt Q9NSE4)
inactive: [1] -0.021 | [2] 0.014 | [3] -0.009 | [4] 0.049 | entinostat -0.038 | vorinostat -0.003 | citarinostat 0.027 | silmitasertib 0.008 | [5] -0.015 | [6] 0.013

HSP90AA1 isoform 2 (UniProt P07900)
inactive: [1] -0.027 | [2] -0.003 | [3] -0.088 | [4] -0.028 | entinostat 0.014 | vorinostat 0.025 | citarinostat 0.006 | silmitasertib -0.015 | [5] -0.026 | [6] 0.01

IDE (UniProt P14735)
inactive: [1] 0.012 | [2] -0.073 | [3] -0.06 | [4] -0.033 | entinostat 0.044 | vorinostat 0.016 | citarinostat 0.013 | silmitasertib 0.012 | [5] -0.007 | [6] -0.017
